The values below are quoted from earlier work in US11464736B2, “Thermally gelling drug formulations” (UNM Rainforest Innovations, priority 2019, dated 2022).

Where two headings read alike, the source gives them in different places.

Consider `CCC(C)n1ncn(-c2ccc(N3CCN(c4ccc(OCC5COC(Cn6cncn6)(c6ccc(Cl)cc6Cl)O5)cc4)CC3)cc2)c1=O` (centres unmarked) [ITZ, Itraconazole], for which the solubility result is, setting by setting: (in alcohol) “very slightly soluble”; (physiological pH) “practically insoluble”.
